Data as given in PubChem BioAssay AID1259308 (NCATS, 2017).
Purpose: 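Candidate targets for better recombinant protein yield in mammalian cells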 (primary screen). Cell system: human HEK293 embryonic kidney cells stably expressing firefly luciferase (HEK-CMV-Luc2-Hygro). Knock-down reagent: single siRNA against human genes, 0.8 pmol siRNA per well. Timing: 72 h. Measured: 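Reporter luminescence and viable-cell signal on separate replicate plates, given as percent of non-targeting control and median/MAD z-scores, plus per-cell luciferase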. Direction: total luciferase, z-score: higher = more reporter protein produced. Call rule: 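Active when the median/MAD z-score for overall luciferase is greater than 3; a gene was taken forward for validation with new siRNAs if at least two of its three siRNAs passed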. Calls: active = raised luciferase; inactive = no rise.
This is one part, drawn at random, of about 59,000 deposited reagents. Over the whole deposit, about 1,510 (2.6%) are marked active. 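Calls use total luciferase alone and ignore viability, so some active siRNAs may act by altering cell number.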 Reagents against one gene are numbered here. Not all columns of the deposit are shown.

SMPD5 #1 → total luciferase, z-score = -0.742; outcome = inactive
SMPD5 #2 → total luciferase, z-score = -0.285; outcome = inactive
SMPD5 #3 → total luciferase, z-score = -0.0915; outcome = inactive
RRN3 #1 → total luciferase, z-score = -1.32; outcome = inactive
RRN3 #2 → total luciferase, z-score = -2.1; outcome = inactive
RRN3 #3 → total luciferase, z-score = -0.896; outcome = inactive
DDX3Y #1 → total luciferase, z-score = 0.798; outcome = inactive
DDX3Y #2 → total luciferase, z-score = -0.139; outcome = inactive
DDX3Y #3 → total luciferase, z-score = 0.473; outcome = inactive
FGF14-IT1 #1 → total luciferase, z-score = 0.318; outcome = inactive
FGF14-IT1 #2 → total luciferase, z-score = 0.218; outcome = inactive
FGF14-IT1 #3 → total luciferase, z-score = -1.06; outcome = inactive
NOP14 #1 → total luciferase, z-score = -1.69; outcome = inactive
NOP14 #2 → total luciferase, z-score = -0.729; outcome = inactive
NOP14 #3 → total luciferase, z-score = -1.1; outcome = inactive
GFM2 #1 → total luciferase, z-score = 2.51; outcome = inactive
GFM2 #2 → total luciferase, z-score = -0.885; outcome = inactive
GFM2 #3 → total luciferase, z-score = -0.0895; outcome = inactive
RAB39B #1 → total luciferase, z-score = -0.0478; outcome = inactive
RAB39B #2 → total luciferase, z-score = 0.36; outcome = inactive
RAB39B #3 → total luciferase, z-score = 1.11; outcome = inactive
IL1B #1 → total luciferase, z-score = -0.753; outcome = inactive
IL1B #2 → total luciferase, z-score = 0.943; outcome = inactive
IL1B #3 → total luciferase, z-score = 0.354; outcome = inactive
NTRK3 #1 → total luciferase, z-score = -0.0903; outcome = inactive
NTRK3 #2 → total luciferase, z-score = 0.633; outcome = inactive
NTRK3 #3 → total luciferase, z-score = -0.609; outcome = inactive
CSF1R #1 → total luciferase, z-score = 0.808; outcome = inactive
CSF1R #2 → total luciferase, z-score = 0.705; outcome = inactive
CSF1R #3 → total luciferase, z-score = 0.876; outcome = inactive
ZNF630 #1 → total luciferase, z-score = 0.378; outcome = inactive
ZNF630 #2 → total luciferase, z-score = 2.12; outcome = inactive
ZNF630 #3 → total luciferase, z-score = 0.339; outcome = inactive

Laid out differently: entries from further up
{"Target gene": "IL1B", "reagent": 1, "total luciferase, z-score": -0.753, "outcome": "inactive"}
{"Target gene": "IL1B", "reagent": 2, "total luciferase, z-score": 0.943, "outcome": "inactive"}
{"Target gene": "IL1B", "reagent": 3, "total luciferase, z-score": 0.354, "outcome": "inactive"}
{"Target gene": "NTRK3", "reagent": 1, "total luciferase, z-score": -0.0903, "outcome": "inactive"}
